Laboratory results as given in patent US8673306B2, “Compositions and methods of use for antibodies of dickkopf-1” (Novartis AG, priority 2006, dated 2014).
Some of these results come from one statement about several compounds together.

T1: human DKK1 (Homo sapiens, UniProt O94907)
T1 sequence (O94907 32-266): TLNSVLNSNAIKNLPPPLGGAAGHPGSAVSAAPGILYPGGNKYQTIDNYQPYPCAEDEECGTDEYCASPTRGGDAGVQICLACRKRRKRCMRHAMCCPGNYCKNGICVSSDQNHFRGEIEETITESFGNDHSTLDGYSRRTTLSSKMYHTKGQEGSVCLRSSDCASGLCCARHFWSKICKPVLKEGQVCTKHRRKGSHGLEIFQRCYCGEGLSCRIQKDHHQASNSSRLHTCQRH


Molecular target: T1, human DKK1
Assay: Solution equilibrium titration (SET, BioVeris) of Fabs, human DKK1
Assay type: binding
Settings: Fab; at least two measurements unless marked # (single); read-out: Affinity [pM]: solution equilibrium titration, Human DKK1

Row | Molecule | Kd
1 | MOR04910: affinity-optimized Fab from MOR04461; VH SEQ ID NO: 11, VL SEQ ID NO: 30; also used as MOR4910 IgG (antibody, listed as Homo sapiens, V domains shown) VH: QVQLVESGGGLVQPGGSLRLSCAASGFTFSSYWMSWVRQAPGKGLEWVSGISYSGSNTHYADSVKGRFTISRDNSKNTLYLQMNSLRAEDTAVYYCARMGIDLDYWGQGTLVTVSS VL: DIALTQPASVSGSPGQSITISCTGTSSDVGGFNYVSWYQQHPGKAPKLMIHDGSNRPSGVSNRFSGSKSGNTASLTISGLQAEDEADYYCQSWDVSPITAVFGGGTKLTVLGQ | < 30 pM
2 | MOR04946: affinity-optimized Fab from MOR04456; VH SEQ ID NO: 10, VL SEQ ID NO: 29 (antibody, listed as Homo sapiens, V domains shown) VH: QVQLVESGGGLVQPGGSLRLSCAASGFTFNNYGMTWVRQAPGKGLEWVSGISGSGSYTYYADSVKGRFTISRDNSKNTLYLQMNSLRAEDTAVYYCARTIYMDYWGQGTLVTVSS VL: DIVLTQSPATLSLSPGERATLSCRASQNLFSPYLAWYQQKPGQAPRLLIYGASNRATGVPARFSGSGSGTDFTLTISSLEPEDFAVYYCQQYLTLPLTFGQGTKVEIKRT | < 30 pM
